One assay deals with T1, GFP-SNX32 F131D (UniProt Q86XE0).
T1 sequence: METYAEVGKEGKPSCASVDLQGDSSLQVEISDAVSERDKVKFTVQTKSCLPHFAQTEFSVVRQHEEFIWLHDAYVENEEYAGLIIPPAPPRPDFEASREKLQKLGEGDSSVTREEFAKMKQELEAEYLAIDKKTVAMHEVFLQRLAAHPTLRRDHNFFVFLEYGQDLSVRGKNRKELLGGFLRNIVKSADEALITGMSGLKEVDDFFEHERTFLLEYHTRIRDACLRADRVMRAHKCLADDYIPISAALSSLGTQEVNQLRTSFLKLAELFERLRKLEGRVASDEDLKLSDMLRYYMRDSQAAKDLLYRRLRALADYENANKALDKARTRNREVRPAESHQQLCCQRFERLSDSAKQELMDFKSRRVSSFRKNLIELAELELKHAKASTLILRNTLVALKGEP
The assay is described as follows: co-IP.

Protein sequences, listed by entry. Tags and fused reporters are not part of them. Lines headed by an entry give the natural chain unless they say otherwise; changes in a name come on top. Residues count along the entry.
UniProt Q13596, whole entry: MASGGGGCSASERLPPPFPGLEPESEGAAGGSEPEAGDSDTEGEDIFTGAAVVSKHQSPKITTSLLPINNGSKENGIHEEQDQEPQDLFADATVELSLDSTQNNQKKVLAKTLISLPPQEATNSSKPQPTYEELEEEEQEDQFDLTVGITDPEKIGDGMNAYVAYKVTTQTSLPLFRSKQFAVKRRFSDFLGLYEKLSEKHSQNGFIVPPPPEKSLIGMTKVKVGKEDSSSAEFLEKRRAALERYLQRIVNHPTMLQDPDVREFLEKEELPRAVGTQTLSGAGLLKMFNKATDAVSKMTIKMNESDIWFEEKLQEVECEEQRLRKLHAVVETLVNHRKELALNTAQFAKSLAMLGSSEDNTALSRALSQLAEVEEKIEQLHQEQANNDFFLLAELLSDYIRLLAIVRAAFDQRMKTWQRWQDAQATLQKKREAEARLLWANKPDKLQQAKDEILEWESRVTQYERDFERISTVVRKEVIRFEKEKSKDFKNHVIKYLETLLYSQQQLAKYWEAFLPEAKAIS
UniProt P11717, 41-2491: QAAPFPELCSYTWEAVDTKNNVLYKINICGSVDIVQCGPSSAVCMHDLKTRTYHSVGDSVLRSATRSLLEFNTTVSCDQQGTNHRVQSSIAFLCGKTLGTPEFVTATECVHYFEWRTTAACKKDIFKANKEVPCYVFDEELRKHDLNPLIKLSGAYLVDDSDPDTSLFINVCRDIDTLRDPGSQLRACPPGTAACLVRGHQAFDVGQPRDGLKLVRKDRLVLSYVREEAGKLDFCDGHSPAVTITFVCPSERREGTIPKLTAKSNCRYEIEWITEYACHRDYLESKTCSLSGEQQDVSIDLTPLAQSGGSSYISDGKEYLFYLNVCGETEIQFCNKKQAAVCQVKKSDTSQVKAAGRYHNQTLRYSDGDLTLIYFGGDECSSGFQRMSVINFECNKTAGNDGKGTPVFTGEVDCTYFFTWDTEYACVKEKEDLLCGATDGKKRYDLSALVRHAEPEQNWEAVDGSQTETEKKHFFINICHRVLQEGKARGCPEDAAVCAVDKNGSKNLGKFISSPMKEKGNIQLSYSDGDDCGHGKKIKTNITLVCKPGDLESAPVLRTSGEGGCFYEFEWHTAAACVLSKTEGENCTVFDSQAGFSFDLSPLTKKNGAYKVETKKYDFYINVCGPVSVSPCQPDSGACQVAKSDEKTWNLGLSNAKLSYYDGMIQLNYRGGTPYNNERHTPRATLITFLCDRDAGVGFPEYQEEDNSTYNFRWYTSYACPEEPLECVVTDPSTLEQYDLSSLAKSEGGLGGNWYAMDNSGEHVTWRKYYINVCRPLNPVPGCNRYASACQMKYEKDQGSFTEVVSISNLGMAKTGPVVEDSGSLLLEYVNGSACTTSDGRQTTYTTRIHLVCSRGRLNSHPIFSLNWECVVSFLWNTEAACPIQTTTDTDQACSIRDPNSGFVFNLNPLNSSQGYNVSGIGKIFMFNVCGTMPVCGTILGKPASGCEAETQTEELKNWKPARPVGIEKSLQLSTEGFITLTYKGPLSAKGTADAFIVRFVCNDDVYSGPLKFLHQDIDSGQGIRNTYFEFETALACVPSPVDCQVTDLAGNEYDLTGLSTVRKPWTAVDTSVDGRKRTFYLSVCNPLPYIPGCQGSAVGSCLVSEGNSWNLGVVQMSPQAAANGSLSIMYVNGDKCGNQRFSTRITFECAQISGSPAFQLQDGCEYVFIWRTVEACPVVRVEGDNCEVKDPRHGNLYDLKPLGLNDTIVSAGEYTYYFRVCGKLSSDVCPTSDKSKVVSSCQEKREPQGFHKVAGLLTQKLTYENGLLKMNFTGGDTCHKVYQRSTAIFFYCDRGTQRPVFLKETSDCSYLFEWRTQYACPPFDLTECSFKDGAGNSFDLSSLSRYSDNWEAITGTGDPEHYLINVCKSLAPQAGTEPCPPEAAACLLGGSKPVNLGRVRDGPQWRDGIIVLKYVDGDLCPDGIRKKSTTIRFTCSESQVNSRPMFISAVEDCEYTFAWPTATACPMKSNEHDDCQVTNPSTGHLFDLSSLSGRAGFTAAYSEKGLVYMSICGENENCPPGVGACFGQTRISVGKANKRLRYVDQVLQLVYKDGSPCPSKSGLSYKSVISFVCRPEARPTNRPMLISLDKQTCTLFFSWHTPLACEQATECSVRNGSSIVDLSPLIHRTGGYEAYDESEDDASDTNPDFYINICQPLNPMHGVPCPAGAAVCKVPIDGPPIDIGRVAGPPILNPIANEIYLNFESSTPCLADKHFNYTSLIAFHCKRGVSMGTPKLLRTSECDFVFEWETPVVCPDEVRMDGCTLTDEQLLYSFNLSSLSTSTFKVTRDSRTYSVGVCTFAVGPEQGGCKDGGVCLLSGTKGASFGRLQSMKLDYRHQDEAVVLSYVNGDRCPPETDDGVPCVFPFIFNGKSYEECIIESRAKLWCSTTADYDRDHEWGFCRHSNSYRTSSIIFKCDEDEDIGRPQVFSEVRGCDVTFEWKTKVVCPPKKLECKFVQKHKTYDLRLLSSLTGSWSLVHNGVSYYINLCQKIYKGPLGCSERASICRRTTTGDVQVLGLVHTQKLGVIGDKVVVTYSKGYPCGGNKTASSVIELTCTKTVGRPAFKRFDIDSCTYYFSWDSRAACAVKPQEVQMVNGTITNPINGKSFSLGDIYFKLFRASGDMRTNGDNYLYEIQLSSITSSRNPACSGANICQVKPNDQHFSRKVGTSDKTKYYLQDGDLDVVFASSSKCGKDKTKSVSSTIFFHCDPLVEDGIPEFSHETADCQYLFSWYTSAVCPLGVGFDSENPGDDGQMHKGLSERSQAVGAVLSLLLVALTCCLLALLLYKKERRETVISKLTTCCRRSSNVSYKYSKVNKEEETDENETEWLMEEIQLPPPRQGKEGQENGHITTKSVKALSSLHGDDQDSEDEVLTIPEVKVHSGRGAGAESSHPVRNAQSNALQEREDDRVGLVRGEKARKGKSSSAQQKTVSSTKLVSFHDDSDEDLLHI

Another assay concerns the target T2, GFP-SNX32 WT (UniProt Q86XE0).
T2 sequence: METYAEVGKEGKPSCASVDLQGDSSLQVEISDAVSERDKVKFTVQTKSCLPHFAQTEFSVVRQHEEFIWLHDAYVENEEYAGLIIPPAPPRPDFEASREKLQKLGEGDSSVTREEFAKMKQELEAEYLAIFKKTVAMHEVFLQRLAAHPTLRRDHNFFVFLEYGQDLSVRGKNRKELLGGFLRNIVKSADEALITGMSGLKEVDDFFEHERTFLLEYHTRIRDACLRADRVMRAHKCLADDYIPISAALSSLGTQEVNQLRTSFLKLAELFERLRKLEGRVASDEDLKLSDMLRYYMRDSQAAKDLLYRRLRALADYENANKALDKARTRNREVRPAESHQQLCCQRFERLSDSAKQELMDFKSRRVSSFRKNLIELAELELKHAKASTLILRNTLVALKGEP
The assay is described as follows: co-IP.

The next assay addresses T3, His-SNX32ΔC (UniProt Q86XE0).
T3 sequence: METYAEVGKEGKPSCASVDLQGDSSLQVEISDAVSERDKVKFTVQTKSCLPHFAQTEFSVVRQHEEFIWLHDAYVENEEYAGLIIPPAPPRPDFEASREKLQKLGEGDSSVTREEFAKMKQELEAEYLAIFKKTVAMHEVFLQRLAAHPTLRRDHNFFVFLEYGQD
Put plainly: pull-down.

The target in another assay is T4, GFP-SNX4, O95219.
T4 chain: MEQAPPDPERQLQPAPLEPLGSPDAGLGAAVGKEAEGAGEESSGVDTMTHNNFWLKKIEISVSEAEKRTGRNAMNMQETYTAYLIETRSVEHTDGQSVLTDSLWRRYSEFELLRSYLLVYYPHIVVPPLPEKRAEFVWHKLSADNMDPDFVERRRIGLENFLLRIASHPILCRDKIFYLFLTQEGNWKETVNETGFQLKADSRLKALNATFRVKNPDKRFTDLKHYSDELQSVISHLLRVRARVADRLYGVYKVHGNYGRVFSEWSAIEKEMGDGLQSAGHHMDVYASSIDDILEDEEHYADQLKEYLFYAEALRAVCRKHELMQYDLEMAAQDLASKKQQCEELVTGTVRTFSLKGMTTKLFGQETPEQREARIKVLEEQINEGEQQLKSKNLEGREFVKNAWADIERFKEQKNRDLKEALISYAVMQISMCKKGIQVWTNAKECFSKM
Put plainly: co-IP. The settings on record: remark: other sources report otherwise.

The next assay deals with GFP-SNX1 (UniProt Q13596). The assay is described as follows: co-IP.
The next assay has as its target T5, GFP-SNX4 (UniProt O95219).
T5 sequence: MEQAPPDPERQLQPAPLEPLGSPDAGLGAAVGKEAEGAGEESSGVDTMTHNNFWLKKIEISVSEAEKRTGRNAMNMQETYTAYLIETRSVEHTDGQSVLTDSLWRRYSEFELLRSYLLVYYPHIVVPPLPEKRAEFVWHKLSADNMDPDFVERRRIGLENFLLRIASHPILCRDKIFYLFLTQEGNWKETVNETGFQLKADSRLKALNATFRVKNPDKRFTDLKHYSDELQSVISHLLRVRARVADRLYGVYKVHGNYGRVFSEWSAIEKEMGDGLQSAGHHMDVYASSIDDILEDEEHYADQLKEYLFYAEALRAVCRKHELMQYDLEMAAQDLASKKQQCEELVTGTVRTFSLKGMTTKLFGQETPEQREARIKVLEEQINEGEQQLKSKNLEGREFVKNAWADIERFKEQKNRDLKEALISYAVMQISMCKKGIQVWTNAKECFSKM
Put plainly: co-IP.

This note sets out measurements from publication doi:10.1101/2022.11.04.515170.

These are yes or no findings as the source states them, for the method shown. Binding seen in cells or lysates may run through a third protein. Some entries that bind do so weakly or less than the wild type. Where a sequence is shown, tags or fusion partners need not be part of it.

In the case of “endogenous SNX1 (from UniProt Q13596 1-522)”, the binding entry with GFP-SNX32 F131D and in the assay with GFP-SNX32 WT was “binds” in each case.
As for “Cation Independent Mannose-6-Phosphate Receptor (from UniProt P11717 41-2491)”, the binding entry with His-SNX32ΔC is given as “binds”; in the assay with GFP-SNX32 F131D it was “no binding”.

B1: HA-SNX32 FL, Q86XE0 1-403 (natural protein)
chain: METYAEVGKEGKPSCASVDLQGDSSLQVEISDAVSERDKVKFTVQTKSCLPHFAQTEFSVVRQHEEFIWLHDAYVENEEYAGLIIPPAPPRPDFEASREKLQKLGEGDSSVTREEFAKMKQELEAEYLAIFKKTVAMHEVFLQRLAAHPTLRRDHNFFVFLEYGQDLSVRGKNRKELLGGFLRNIVKSADEALITGMSGLKEVDDFFEHERTFLLEYHTRIRDACLRADRVMRAHKCLADDYIPISAALSSLGTQEVNQLRTSFLKLAELFERLRKLEGRVASDEDLKLSDMLRYYMRDSQAAKDLLYRRLRALADYENANKALDKARTRNREVRPAESHQQLCCQRFERLSDSAKQELMDFKSRRVSSFRKNLIELAELELKHAKASTLILRNTLVALKGEP
Regarding B1, the binding result in the assay with GFP-SNX4, O95219 was “binds”.

B2: HA-SNX32ΔN (domain or fragment, UniProt Q86XE0 167-403)
chain: LSVRGKNRKELLGGFLRNIVKSADEALITGMSGLKEVDDFFEHERTFLLEYHTRIRDACLRADRVMRAHKCLADDYIPISAALSSLGTQEVNQLRTSFLKLAELFERLRKLEGRVASDEDLKLSDMLRYYMRDSQAAKDLLYRRLRALADYENANKALDKARTRNREVRPAESHQQLCCQRFERLSDSAKQELMDFKSRRVSSFRKNLIELAELELKHAKASTLILRNTLVALKGEP
Take B2: the binding result in the assay with GFP-SNX1 and in the assay with GFP-SNX4 was “binds” each time.

B3: HA-SNX32ΔC (domain or fragment, UniProt Q86XE0 1-166)
chain: METYAEVGKEGKPSCASVDLQGDSSLQVEISDAVSERDKVKFTVQTKSCLPHFAQTEFSVVRQHEEFIWLHDAYVENEEYAGLIIPPAPPRPDFEASREKLQKLGEGDSSVTREEFAKMKQELEAEYLAIFKKTVAMHEVFLQRLAAHPTLRRDHNFFVFLEYGQD
With B3, the binding entry with GFP-SNX1 and in the assay with GFP-SNX4 was “no binding” throughout.
